This note sets out measurements from paper PMC3227594.

Chains of the proteins cited; added tags and fusions are not shown.
UniProt Q06945: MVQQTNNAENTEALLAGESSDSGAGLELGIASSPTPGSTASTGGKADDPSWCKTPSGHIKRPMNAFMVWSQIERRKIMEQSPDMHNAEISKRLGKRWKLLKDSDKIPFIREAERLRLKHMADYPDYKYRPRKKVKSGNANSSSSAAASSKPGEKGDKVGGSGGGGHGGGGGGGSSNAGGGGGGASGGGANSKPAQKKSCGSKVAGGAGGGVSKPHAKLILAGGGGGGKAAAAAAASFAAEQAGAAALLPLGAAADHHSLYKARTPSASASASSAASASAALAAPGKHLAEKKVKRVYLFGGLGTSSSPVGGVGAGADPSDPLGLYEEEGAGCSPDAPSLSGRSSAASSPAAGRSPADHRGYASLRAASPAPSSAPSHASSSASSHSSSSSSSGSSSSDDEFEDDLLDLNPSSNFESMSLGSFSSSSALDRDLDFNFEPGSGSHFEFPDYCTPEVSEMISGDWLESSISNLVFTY

Results are given in words; binding and its absence hold for the method and conditions named. Binding seen in cells or lysates may run through a third protein. Some entries that bind do so weakly or less than the wild type.

Assay [1] has as its target T1, Junction plakoglobin (JUP) (human (endogenous in LNCaP, PC3M, primary human keratinocytes, MDA-MB-231)) (UniProt P14923).
T1 sequence: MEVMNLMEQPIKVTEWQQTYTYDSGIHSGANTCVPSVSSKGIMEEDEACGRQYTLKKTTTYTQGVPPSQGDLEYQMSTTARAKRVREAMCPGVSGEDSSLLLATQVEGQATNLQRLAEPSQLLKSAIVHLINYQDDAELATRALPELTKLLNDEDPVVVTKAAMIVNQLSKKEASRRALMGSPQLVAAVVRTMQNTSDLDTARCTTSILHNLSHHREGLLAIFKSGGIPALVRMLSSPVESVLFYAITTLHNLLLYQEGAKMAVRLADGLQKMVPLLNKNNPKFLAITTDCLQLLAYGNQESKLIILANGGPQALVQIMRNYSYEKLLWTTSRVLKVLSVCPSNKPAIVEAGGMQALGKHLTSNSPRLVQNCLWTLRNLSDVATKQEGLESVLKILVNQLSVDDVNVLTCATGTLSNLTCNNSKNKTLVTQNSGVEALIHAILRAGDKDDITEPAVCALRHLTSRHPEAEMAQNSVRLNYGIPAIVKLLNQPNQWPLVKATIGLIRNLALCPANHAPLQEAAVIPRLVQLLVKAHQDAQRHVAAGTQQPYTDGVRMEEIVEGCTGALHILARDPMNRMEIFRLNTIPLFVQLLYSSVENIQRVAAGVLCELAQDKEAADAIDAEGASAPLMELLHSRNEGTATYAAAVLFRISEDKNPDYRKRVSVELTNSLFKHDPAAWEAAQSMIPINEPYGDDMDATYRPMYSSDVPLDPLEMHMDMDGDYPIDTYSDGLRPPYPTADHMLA
Briefly: co-IP; anti-plakoglobin IP from whole cell lysates of primary human keratinocytes and MDA-MB-231, lysates treated with DNase I for 1 hr at room temperature before IP; blot for endogenous SOX4.

The target in assay [2] is T1, Junction plakoglobin (JUP) (human (endogenous in LNCaP, PC3M, primary human keratinocytes, MDA-MB-231)). Briefly: co-IP; anti-plakoglobin IP of endogenous plakoglobin from LNCaP whole cell lysate (transfected or untransfected); blot with anti-HA 16B12 or for endogenous SOX4.
In assay [3] the target is HA-tagged SOX4 (stably expressed) (human) (UniProt Q06945). In words: co-IP; HASOX4 IP from whole cell lysates of PC3M and LNCaP cells stably expressing HA-SOX4, lysates treated with DNase I for 1 hr at room temperature before IP; blot for endogenous plakoglobin.
For assay [4] the target is unchanged. Briefly: co-IP; anti-HA IP from separate cytosolic and nuclear fractions of LNCaP HASOX4 stable cells treated with vehicle, WNT3A, LMB or both; blot for plakoglobin.
For assay [5] the target is unchanged. Briefly: co-IP; anti-HA IP from whole cell lysate of LNCaP HASOX4 stable cells treated with vehicle, WNT3A (100 ng/ml), LMB (20 μM) or both for 24 hrs; blot for plakoglobin.

Consider “SOX4 (endogenous) (from UniProt Q06945 1-474)”, for which the binding entry in assay [1] and in assay [2] was “binds” throughout.

B1: Junction plakoglobin (JUP) (protein, UniProt P14923 1-745)
chain: T1 sequence
Turning to B1, the binding result in assay [3], in assay [4] and in assay [5] was “binds” throughout.
